No constants are given. Whether binding was seen depends on the method and setting. Binding can be weak; no strength is given. Sequences can lack the tags named with a protein.
B1: GAL4 activation domain (AD)–LSU1 (protein, UniProt Q9SCK1 1-94)
chain: MANRGGCVTVAAEEMDELRRRNIELSREVAEMKTEMIKLWQRTVVAEEAEEQLCSQLAELEVESLEQARDYHDRMLFLMDQISRLSSSSVVSSS

Protein sequences, listed by entry. Tags and fused reporters are not part of them. Lines headed by an entry give the natural chain unless they say otherwise; changes in a name come on top.
UniProt Q88A90: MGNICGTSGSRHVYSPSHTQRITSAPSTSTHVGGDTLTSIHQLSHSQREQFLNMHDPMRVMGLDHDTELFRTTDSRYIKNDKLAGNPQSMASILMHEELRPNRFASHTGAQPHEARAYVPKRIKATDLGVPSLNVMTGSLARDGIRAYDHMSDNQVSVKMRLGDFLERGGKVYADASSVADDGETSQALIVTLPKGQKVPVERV
UniProt Q48B66: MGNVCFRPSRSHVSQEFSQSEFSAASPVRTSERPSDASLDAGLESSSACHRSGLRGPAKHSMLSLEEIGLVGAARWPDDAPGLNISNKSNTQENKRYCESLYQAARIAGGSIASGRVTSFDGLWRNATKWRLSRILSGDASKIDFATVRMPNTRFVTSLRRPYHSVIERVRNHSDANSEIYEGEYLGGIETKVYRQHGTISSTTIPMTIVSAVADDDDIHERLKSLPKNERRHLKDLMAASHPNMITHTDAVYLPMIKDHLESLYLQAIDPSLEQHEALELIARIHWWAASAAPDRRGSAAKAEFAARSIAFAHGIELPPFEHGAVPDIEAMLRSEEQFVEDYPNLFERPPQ

Assays:
[1] = target: T1, MBP–LSU1 (Arabidopsis thaliana) (UniProt Q9SCK1); assay: pull-down; Glutathione agarose coated with GST–FSD2, equimolar purified MBP–LSU1 and/or MBP–NIMIN1, MBP–AvrXccC, MBP–AvrB2 or MBP–HopR1, 100 µl PBS, 3 h at 4 °C; four washes with PBS; western blot with anti-MBP, band intensity quantified; both purified
T1 sequence: B1 chain

[2] = target: DB fusion with AvrXccC (Xanthomonas campestris pv. campestris); assay: two-hybrid; ORFs in pDEST-AD (GAL4 AD) against ORFs in pDEST-DB (GAL4 DB); diploid yeast, growth on selective media
[3] = target: DB fusion with AvrB2esh (P. syringae pv. phaseolica (Psp)); assay: as above
[4] = target: DB fusion with HopAT1 (Pseudomonas syringae pv. tomato); assay: as above
[5] = target: DB fusion with HopF3 (Pseudomonas syringae pv. tomato) (UniProt Q88A90); assay: as above
[6] = target: DB fusion with AvrB2pph (P. syringae pv. phaseolica (Psp)); assay: as above

Molecule	binding [1]	binding [2]	binding [3]	binding [4]	binding [5]	binding [6]
MBP–AvrB2 (from UniProt Q48B66)	binds					
MBP–AvrXccC (Xanthomonas campestris pv. campestris)	binds					
B1		binds	binds	binds	binds	binds
